Test results published in patent publication US20080039444A1, “COMPOUNDS” (GLAXO GROUP LIMITED, priority 2006, published 2008).
Where a name gives a salt, the structure may show the parent alone. Some entries share one result that the patent states for a list of compounds.

Protein sequences, listed by entry. Tags and fused reporters are not part of them.
UniProt Q9Y5N1, whole entry, species assumed: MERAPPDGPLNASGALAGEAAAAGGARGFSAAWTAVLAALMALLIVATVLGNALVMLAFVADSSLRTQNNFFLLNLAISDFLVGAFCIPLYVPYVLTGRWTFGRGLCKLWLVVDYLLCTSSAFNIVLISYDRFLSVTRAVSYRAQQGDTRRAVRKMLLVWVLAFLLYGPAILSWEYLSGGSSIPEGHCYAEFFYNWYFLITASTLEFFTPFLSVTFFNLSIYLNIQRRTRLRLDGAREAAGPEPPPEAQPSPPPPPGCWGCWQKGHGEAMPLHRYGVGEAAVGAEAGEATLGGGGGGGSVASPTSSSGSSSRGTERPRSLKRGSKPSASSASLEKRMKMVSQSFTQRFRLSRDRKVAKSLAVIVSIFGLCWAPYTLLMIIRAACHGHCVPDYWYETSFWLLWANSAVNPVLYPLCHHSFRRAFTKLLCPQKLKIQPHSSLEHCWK

target: T1, histamine H3 receptor (Homo sapiens, UniProt Q9Y5N1); assay: Histamine H3 functional antagonist assay ([35S]-GTPγS SPA on CHO membranes); type: biochemical; details: histamine at EC80
T1 construct: expressed in transfected cells; host or cells: CHO K1 cells carrying pSwitch, transfected with pGeneH3 and induced with mifepristone; clone 3H3; membranes

Compound	average pKi (pKb) at H3
O=c1c2ccccc2c(Cc2ccc(Cl)cc2)nn1C[C@@H]1CCCN1CCCOc1ccc2c(c1)CCN(C1CCC1)CC2 [Example 14, 4-[(4-Chlorophenyl)methyl]-2-[((2S)-1-{3-[(3-cyclobutyl-2,3,4,5-tetrahydro-1H-3-benzazepin-7-yl)oxy]propyl}-2-pyrrolidinyl)methyl]-1(2H)-phthalazinone, diformate salt]	> 9
O=c1c2ccccc2c(Cc2ccc(Cl)cc2)nn1C[C@H]1CCCN1CCCOc1ccc2c(c1)CCN(C1CCC1)CC2 [Example 15, 4-[(4-Chlorophenyl)methyl]-2-[((2R)-1-{3-[(3-cyclobutyl-2,3,4,5-tetrahydro-1H-3-benzazepin-7-yl)oxy]propyl}-2-pyrrolidinyl)methyl]-1(2H)-phthalazinone]	> 9
O=c1c2ccccc2c(Cc2ccc(Cl)cc2)nn1C1CCCN(CCCOc2ccc3c(c2)CCN(C2CCC2)CC3)CC1 (stereo not shown) [Example 16, 4-[(4-Chlorophenyl)methyl]-2-(1-{3-[(3-cyclobutyl-2,3,4,5-tetrahydro-1H-3-benzazepin-7-yl)oxy]propyl}hexahydro-1H-azepin-4-yl)-1(2H)-phthalazinone formate salt]	> 9
O=c1c2ccccc2c(Cc2ccc(Cl)cc2)nn1C1CCCN(Cc2ccc3c(c2)CCN(C2CCC2)CC3)CC1 (stereo not shown) [Example 17, 4-[(4-chlorophenyl)methyl]-2-{1-[(3-cyclobutyl-2,3,4,5-tetrahydro-1H-3-benzazepin-7-yl)methyl]hexahydro-1H-azepin-4-yl}-1(2H)-phthalazinone diformate salt]	> 9
O=C(NCCN1CCCC(n2nc(Cc3ccc(Cl)cc3)c3ccccc3c2=O)CC1)c1ccc2c(c1)CCN(C1CCC1)CC2 (stereo not shown) [Example 18, N-(2-{4-[4-[(4-Chlorophenyl)methyl]-1-oxo-2(1H)-phthalazinyl]hexahydro-1H-azepin-1-yl}ethyl)-3-cyclobutyl-2,3,4,5-tetrahydro-1H-3-benzazepine-7-carboxamide diformate salt]	> 9
O=C(NCCCN1CCCC(n2nc(Cc3ccc(Cl)cc3)c3ccccc3c2=O)CC1)c1ccc2c(c1)CCN(C1CCC1)CC2 (stereo not shown) [Example 19, N-(3-{4-[4-[(4-chlorophenyl)methyl]-1-oxo-2(1H)-phthalazinyl]hexahydro-1H-azepin-1-yl}propyl)-3-cyclobutyl-2,3,4,5-tetrahydro-1H-3-benzazepine-7-carboxamide diformate salt]	> 9
O=C(NCCCCN1CCCC(n2nc(Cc3ccc(Cl)cc3)c3ccccc3c2=O)CC1)c1ccc2c(c1)CCN(C1CCC1)CC2 (stereo not shown) [Example 20, N-(4-{4-[4-[(4-Chlorophenyl)methyl]-1-oxo-2(1H)-phthalazinyl]hexahydro-1H-azepin-1-yl}butyl)-3-cyclobutyl-2,3,4,5-tetrahydro-1H-3-benzazepine-7-carboxamide diformate salt]	> 9
